Test results as given in patent US20050214772, “Thio modified aptamer synthetic methods and compositions” (Board Of Regents, The University Of Texas System, published 2005).
For part of these data: Negatives hold for the conditions tested. For part of these data: Where a protein sequence is shown, tags need not be part of it. For part of these data: The comparison behind a weaker result is the experiment's own reference, which may not be listed here. For part of these data: Results from cells or extracts need not show a direct contact. For part of these data: Construct, isoform or probe ends are uncertain for at least one entry.

Chains of the proteins cited; added tags and fusions are not shown. A line that says so, or that is headed by a name, gives the form on record, which may keep a tag or linker. Residues count along the entry.
UniProt P17676, 266-345: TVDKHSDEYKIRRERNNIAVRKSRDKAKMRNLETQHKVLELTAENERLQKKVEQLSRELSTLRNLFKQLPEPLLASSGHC
NF-kB p65 (RelA) homodimer, one chain, as listed by the source: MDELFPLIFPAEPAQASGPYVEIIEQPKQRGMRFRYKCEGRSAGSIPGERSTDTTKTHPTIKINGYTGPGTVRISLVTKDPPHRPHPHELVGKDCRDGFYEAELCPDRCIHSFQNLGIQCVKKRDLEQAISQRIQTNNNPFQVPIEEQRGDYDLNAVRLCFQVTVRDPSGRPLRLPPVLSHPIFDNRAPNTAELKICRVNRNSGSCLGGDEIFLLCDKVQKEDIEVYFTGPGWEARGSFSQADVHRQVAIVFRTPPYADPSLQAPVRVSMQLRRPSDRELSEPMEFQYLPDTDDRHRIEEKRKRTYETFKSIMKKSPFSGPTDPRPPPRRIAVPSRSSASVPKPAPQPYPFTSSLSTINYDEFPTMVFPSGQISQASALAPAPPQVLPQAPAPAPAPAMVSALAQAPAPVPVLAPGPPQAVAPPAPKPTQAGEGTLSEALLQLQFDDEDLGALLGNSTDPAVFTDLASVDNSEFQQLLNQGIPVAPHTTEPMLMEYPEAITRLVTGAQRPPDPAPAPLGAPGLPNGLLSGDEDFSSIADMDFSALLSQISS

Legend:
[1] = tested on: NF-kB p65 (RelA) homodimer; experiment: EMSA; conditions: purified recombinant protein
NF-kB p50 homodimer = biological target: T1, NF-kB p50 homodimer (UniProt P19838); experiment: EMSA; conditions: purified recombinant protein
T1 sequence (looked up, limits assumed): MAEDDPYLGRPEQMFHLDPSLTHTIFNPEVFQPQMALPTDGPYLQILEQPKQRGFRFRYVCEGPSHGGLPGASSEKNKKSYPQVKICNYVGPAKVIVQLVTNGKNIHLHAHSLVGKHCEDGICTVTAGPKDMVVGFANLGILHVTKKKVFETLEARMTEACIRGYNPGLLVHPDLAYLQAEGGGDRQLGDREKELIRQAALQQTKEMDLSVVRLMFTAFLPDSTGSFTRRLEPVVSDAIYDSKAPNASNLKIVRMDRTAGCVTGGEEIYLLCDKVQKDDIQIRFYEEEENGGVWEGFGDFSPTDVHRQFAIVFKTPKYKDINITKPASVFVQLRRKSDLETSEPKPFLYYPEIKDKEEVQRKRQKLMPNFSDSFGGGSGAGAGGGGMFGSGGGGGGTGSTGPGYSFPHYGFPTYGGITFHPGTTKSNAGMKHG

[2] = biological target: T2, NF-kB p50-containing dimer in 70Z/3 nuclear extract (UniProt P25799); experiment: EMSA; conditions: unmodified phosphodiester ODN, no NF-kB-specific binding in extracts; protein in an extract
T2 sequence (looked up, limits assumed): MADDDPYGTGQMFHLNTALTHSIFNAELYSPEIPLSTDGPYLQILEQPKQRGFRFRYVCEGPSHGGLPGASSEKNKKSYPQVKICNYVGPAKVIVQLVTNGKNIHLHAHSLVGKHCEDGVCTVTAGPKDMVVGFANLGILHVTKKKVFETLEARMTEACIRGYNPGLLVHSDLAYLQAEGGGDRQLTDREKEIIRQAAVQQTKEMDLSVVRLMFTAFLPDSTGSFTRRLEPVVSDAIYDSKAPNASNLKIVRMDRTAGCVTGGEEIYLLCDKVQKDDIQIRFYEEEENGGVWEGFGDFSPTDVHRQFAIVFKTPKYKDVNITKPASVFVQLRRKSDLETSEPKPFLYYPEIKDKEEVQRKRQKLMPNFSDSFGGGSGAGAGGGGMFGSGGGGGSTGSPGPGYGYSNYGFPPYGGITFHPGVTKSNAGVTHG

[3] = biological target: NF-IL6 (C/EBPbeta) tryptic core domain bZIP (TCD) (UniProt P17676); experiment: FP; conditions: monothiophosphate at all dA outside primers, purified recombinant protein, protein details: untagged nonfusion, E. coli
[4] = tested on: NF-kB p65 (RelA) homodimer; experiment: FP; conditions: monothiophosphate at all dA outside primers; specificity control, no binding up to 4 uM; purified recombinant protein
[5] = single-copy site behaves similarly to CK-1
[6] = direct titration of labeled aptamer, monomer concentration at 50% saturation

Sequence: AGTTGAGGGGACTTTCCCAGGC (double strand) [IgkB promoter element 22-mer]
- binding result ([1]; label: 32P): binds

Sequence: CCAGGAGATTCCAC (double strand) [CK-14 fully monothiolated duplex]
- binding result ([1]; PS all linkages, full monothiolation loses specificity, variant of CK-14 phosphodiester duplex): binds

Sequence: CCAGGAGATTCCAC (double strand) [CK-14 phosphodiester duplex]
- binding result (NF-kB p50 homodimer; [5]): no binding
- binding result [1, 5]: binds
- binding result [2]: no binding

Sequence: CCAGGAGATTCCAC (double strand) [Dithioate duplex aptamer 6]
- binding result ([1]; phosphorodithioate 3' of T2 and T12 of the complementary strand, variant of CK-14 phosphodiester duplex): binds

Sequence: CCAGGAGATTCCAC (double strand) [Dithioate duplex aptamer 7]
- binding result ([1]; phosphorodithioate 3' of T7 and T9 of the complementary strand, variant of CK-14 phosphodiester duplex): binds

Sequence: CCAGGAGATTCCAC (double strand) [Dithioate duplex aptamer 8]
- binding result ([1]; phosphorodithioate 3' of T2, T7, T9 and T12 of the complementary strand, variant of CK-14 phosphodiester duplex): binds

Sequence: CCAGGAGATTCCAC (double strand) [Dithioate duplex aptamer 9]
- binding result ([1]; phosphorodithioate 3' of T9 and T10 of the top strand, T2 and T12 of the complementary strand, variant of CK-14 phosphodiester duplex): binds

Sequence: CCAGGAGATTCCAC (double strand) [Dithioate duplex aptamer 10]
- binding result ([1]; phosphorodithioate 3' of T9 and T10 of the top strand, T7 and T9 of the complementary strand, variant of CK-14 phosphodiester duplex): binds

Sequence: CCAGGAGATTCCAC (double strand) [Dithioate duplex aptamer 11 (XBY-6)]
- binding result (NF-kB p50 homodimer; phosphorodithioate 3' of T9 and T10 of the top strand, T2, T7, T9 and T12 of the complementary strand, in vitro, recombinant p50 homodimer, variant of CK-14 phosphodiester duplex): binds more weakly
- binding result ([1]; phosphorodithioate 3' of T9 and T10 of the top strand, T2, T7, T9 and T12 of the complementary strand, variant of CK-14 phosphodiester duplex): binds

Sequence: CCAGGAGATTCCACCCAGGAGATTCCACCCAGGAGATTCCAC (double strand) [CK-1 42-mer phosphodiester duplex]
- binding result (NF-kB p50 homodimer): no binding
- binding result [1]: binds

Sequence: CCAGGAGATTCCACCCAGGAGATTCCACCCAGGAGATTCCAC (double strand) [CK-1 phosphorothioate duplex]
- binding result ([1]; PS all linkages, variant of CK-1 42-mer phosphodiester duplex): binds

Sequence: CCCGTTGTTGTCCCACTCCACG (double strand)
- Kd [3, 6]: 3 nM
- Kd [3]: < 2 nM

Sequence: GGCCGACCGCACAGCACAACCC (double strand) [Thiophosphate clone 7 (66-mer, variable region given)]
- Kd [3]: < 2 nM

Sequence: GGGCCCGCTGTACATGCACACG (double strand)
- binding result [4]: no binding
- Kd [3, 6]: 5 nM
- Kd [3]: < 2 nM
